Results as given in patent publication US5624897A (Bayer Aktiengesellschaft, priority 1993, dated 1997).

test: general procedure: solution-phase peptide synthesis; BOP-Cl / N,N-diisopropylethylamine; settings: coupling step

Substance	step yield
tert-butyl N-benzyloxycarbonyl-N-methyl-L-alanyl-D-lactyl-N-methyl-L-isoleucyl-D-lactyl-N-methyl-L-isoleucyl-D-lactate	59.9% of theory
tert-butyl N-benzyl-N-methyl-L-alanyl-D-lactyl-N-methyl-L-isoleucyl-D-lactyl-N-methyl-L-isoleucyl-D-lactate	57.8% of theory
tert-butyl N-benzyl-N-methyl-L-isoleucyl-D-lactyl-N-methyl-L-isoleucyl-D-lactate	98.8% of theory
tert-butyl N-benzyl-N-methyl-L-isoleucyl-D-lactyl-N-methyl-L-alanyl-D-lactate	60.4% of theory
tert-butyl N-benzyl-N-methyl-L-alanyl-D-lactyl-N-methyl-L-alanyl-D-lactate	36.9% of theory
tert-butyl N-benzyl-N-methyl-L-alanyl-D-lactyl-N-methyl-L-isoleucyl-D-lactate	100% of theory

same assay, conditions: cyclisation step, on linear precursor

Substance	cyclisation yield
Cyclo(-N-methyl-L-alanyl-D-lactyl-N-methyl-L-isoleucyl-D-lactyl-N-methyl-L-isoleucyl-D-lactyl-)	59.8% of theory

same assay, conditions: late stage modification step

Substance	step yield
tert-butyl N-methyl-L-isoleucyl-D-lactyl-N-methyl-L-isoleucyl-D-lactate	85.4% of theory
N-benzyl-N-methyl-L-alanyl-D-lactyl-N-methyl-L-isoleucyl-D-lactyl-N-methyl-L-isoleucyl-D-lactic acid	99.5% of theory
tert-Butyl N-methyl-L-isoleucyl-D-lactyl-N-methyl-L-alanyl-D-lactate	83.2% of theory
N-benzyl-N-methyl-L-isoleucyl-D-lactic acid	100% of theory
N-benzyloxycarbonyl-N-methyl-L-alanyl-D-lactyl-N-methyl-L-isoleucyl-D-lactyl-N-methyl-L-isoleucyl-D-lactic acid	85.3% of theory
tert-butyl N-methyl-L-alanyl-D-lactyl-N-methyl-L-isoleucyl-D-lactate	98.0% of theory
tert-butyl N-methyl-L-alanyl-D-lactyl-N-methyl-L-alanyl-D-lactate	89.5% of theory
N-methyl-L-alanyl-D-lactyl-N-methyl-L-isoleucyl-D-lactyl-N-methyl-L-isoleucyl-D-lactic acid	98.7% of theory
